In assay [1] the target is T1, Histone deacetylase HDAC7 (human (endogenous in T24 and UMUC3 bladder cancer cells)) (UniProt Q8WUI4).
T1 sequence: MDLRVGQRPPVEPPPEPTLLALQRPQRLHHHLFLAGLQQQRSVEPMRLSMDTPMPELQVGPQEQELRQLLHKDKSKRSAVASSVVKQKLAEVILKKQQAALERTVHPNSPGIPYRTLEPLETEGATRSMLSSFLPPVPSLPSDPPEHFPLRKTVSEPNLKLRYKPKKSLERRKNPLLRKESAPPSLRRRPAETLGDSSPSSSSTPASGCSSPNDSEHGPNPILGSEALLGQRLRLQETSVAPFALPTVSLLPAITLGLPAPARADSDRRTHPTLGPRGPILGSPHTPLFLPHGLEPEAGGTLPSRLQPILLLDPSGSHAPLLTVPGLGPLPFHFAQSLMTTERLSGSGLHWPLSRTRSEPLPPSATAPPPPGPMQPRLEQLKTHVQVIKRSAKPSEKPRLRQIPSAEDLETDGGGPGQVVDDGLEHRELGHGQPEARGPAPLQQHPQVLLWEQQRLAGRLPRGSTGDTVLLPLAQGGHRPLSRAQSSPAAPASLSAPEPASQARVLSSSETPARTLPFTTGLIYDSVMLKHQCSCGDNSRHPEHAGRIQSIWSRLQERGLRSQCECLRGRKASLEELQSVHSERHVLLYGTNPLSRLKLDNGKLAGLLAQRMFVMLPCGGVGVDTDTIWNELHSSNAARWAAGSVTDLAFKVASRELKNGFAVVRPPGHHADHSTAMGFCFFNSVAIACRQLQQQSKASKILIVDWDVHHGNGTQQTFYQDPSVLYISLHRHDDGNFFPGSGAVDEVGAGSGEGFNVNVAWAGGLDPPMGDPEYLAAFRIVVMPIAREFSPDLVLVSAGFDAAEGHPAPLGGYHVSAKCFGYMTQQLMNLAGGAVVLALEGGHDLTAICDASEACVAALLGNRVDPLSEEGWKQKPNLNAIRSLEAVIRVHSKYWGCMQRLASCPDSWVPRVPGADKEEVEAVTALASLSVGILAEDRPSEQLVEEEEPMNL
Briefly: affinity purification with mass spectrometry; co-immunoprecipitation of HDAC7 from BCa cell lysate (20 mM Tris pH 7.5, 150 mM NaCl, 1% Triton X-100), protein A/G agarose beads, overnight at 4 °C, six washes, then mass spectrometry.

Sequences of proteins named here, by UniProt entry; tags and fusion partners are left off. Residues count along the entry.
UniProt P13501, residues 24-91: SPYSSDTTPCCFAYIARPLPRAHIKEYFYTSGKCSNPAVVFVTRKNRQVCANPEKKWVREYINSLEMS

The target in assay [2] is T1, Histone deacetylase HDAC7 (human (endogenous in T24 and UMUC3 bladder cancer cells)). The assay is described as above. This is another data set of the same source.

Like-named read-outs stand apart in the source and are kept apart here. No constants are given. Whether binding was seen depends on the method and setting. Binding seen in cells or lysates may run through a third protein. A yes stands for co-enrichment or nearness to the bait. Other partners may have been found. For some assays here: No binding means not detected with the bait. Where a sequence is shown, tags or fusion partners need not be part of it.

With “C-C Motif chemokine ligand 5 (CCL5) (from UniProt P13501 24-91)”, the binding result in assay [1] is “no binding”.

B1: Serine and arginine rich splicing factor 7 (SRSF7) (protein, UniProt Q16629 1-238)
chain: MSRYGRYGGETKVYVGNLGTGAGKGELERAFSYYGPLRTVWIARNPPGFAFVEFEDPRDAEDAVRGLDGKVICGSRVRVELSTGMPRRSRFDRPPARRPFDPNDRCYECGEKGHYAYDCHRYSRRRRSRSRSRSHSRSRGRRYSRSRSRSRGRRSRSASPRRSRSISLRRSRSASLRRSRSGSIKGSRYFQSPSRSRSRSRSISRPRSSRSKSRSPSPKRSRSPSGSPRRSASPERMD
In the case of B1, the binding entry in assay [2] was “binds”.

The values are drawn from paper PMC12729082.
